{"source": "PubChem BioAssay AID1259425 | University of Nebraska Medical Center, 2018", "assay": "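Find knockdowns that reproduce the gene expression pattern seen when KSR1 is lost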 (primary screen)", "cells": "HCT116 human colon cancer cells", "knock-down reagent": "siRNA pool against human genes, 50 nM siRNA", "detection": "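mRNA of six signature genes measured together by branched-DNA assay after 50 nM siRNA pool, blank removed, divided by geometric mean of two housekeeping genes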", "reading the numbers": "BNIP3L mRNA: higher = more BNIP3L transcript after knockdown; NDRG1 mRNA: higher = more NDRG1 transcript after knockdown", "note": "Shown is an unselected part of about 14,000 reagents. Further read-outs or replicates are left out here. Reagent sequences are not shown. The record does not give: the time to read-out."}
The opening 2 entries, ahead of the listing:
{"gene knocked down": "XPR1 (GeneID 9213)", "BNIP3L mRNA, set 1": 0.16, "NDRG1 mRNA, set 1": 0.208}
{"gene knocked down": "YIPF5 (GeneID 81555)", "BNIP3L mRNA, set 1": 0.219, "NDRG1 mRNA, set 1": 0.229}

The list itself, from the start:
{"gene knocked down": "XPR1 (GeneID 9213)", "BNIP3L mRNA, set 1": 0.16, "NDRG1 mRNA, set 1": 0.208}
{"gene knocked down": "YIPF5 (GeneID 81555)", "BNIP3L mRNA, set 1": 0.219, "NDRG1 mRNA, set 1": 0.229}
{"gene knocked down": "PLEKHA3 (GeneID 65977)", "BNIP3L mRNA, set 1": 0.173, "NDRG1 mRNA, set 1": 0.298}
{"gene knocked down": "MKKS (GeneID 8195)", "BNIP3L mRNA, set 1": 0.116, "NDRG1 mRNA, set 1": 0.229}
{"gene knocked down": "AMPD1 (GeneID 270)", "BNIP3L mRNA, set 1": 0.0978, "NDRG1 mRNA, set 1": 0.144}
{"gene knocked down": "CDC25A (GeneID 993)", "BNIP3L mRNA, set 1": 0.0766, "NDRG1 mRNA, set 1": 0.118}
{"gene knocked down": "TDRD7 (GeneID 23424)", "BNIP3L mRNA, set 1": 0.21, "NDRG1 mRNA, set 1": 0.597}
{"gene knocked down": "FBXO8 (GeneID 26269)", "BNIP3L mRNA, set 1": 0.082, "NDRG1 mRNA, set 1": 0.0625}
{"gene knocked down": "SORD (GeneID 6652)", "BNIP3L mRNA, set 1": 0.0772, "NDRG1 mRNA, set 1": 0.393}
{"gene knocked down": "ACE2 (GeneID 59272)", "BNIP3L mRNA, set 1": 0.11, "NDRG1 mRNA, set 1": 0.0984}
{"gene knocked down": "ALYREF (GeneID 10189)", "BNIP3L mRNA, set 1": 0.135, "NDRG1 mRNA, set 1": 0.393}
{"gene knocked down": "VAPB (GeneID 9217)", "BNIP3L mRNA, set 1": 0.235, "NDRG1 mRNA, set 1": 0.146}
{"gene knocked down": "FETUB (GeneID 26998)", "BNIP3L mRNA, set 1": 0.0608, "NDRG1 mRNA, set 1": 0.144}
{"gene knocked down": "B3GAT1 (GeneID 27087)", "BNIP3L mRNA, set 1": 0.161, "NDRG1 mRNA, set 1": 0.247}
{"gene knocked down": "ZNF536 (GeneID 9745)", "BNIP3L mRNA, set 1": 0.163, "NDRG1 mRNA, set 1": 0.464}
{"gene knocked down": "TBC1D9 (GeneID 23158)", "BNIP3L mRNA, set 1": 0.147, "NDRG1 mRNA, set 1": 0.211}
{"gene knocked down": "P4HA2 (GeneID 8974)", "BNIP3L mRNA, set 1": 0.0927, "NDRG1 mRNA, set 1": 0.152}
{"gene knocked down": "LINC00597 (GeneID 81698)", "BNIP3L mRNA, set 1": 0.0892, "NDRG1 mRNA, set 1": 0.155}
{"gene knocked down": "SCRN3 (GeneID 79634)", "BNIP3L mRNA, set 1": 0.103, "NDRG1 mRNA, set 1": 0.179}
{"gene knocked down": "PWWP3A (GeneID 84939)", "BNIP3L mRNA, set 1": 0.0825, "NDRG1 mRNA, set 1": 0.17}
{"gene knocked down": "AP4B1 (GeneID 10717)", "BNIP3L mRNA, set 1": 0.173, "NDRG1 mRNA, set 1": 0.112}
{"gene knocked down": "CCDC51 (GeneID 79714)", "BNIP3L mRNA, set 1": 0.0949, "NDRG1 mRNA, set 1": 0.338}
{"gene knocked down": "B4GALT5 (GeneID 9334)", "BNIP3L mRNA, set 1": 0.214, "NDRG1 mRNA, set 1": 0.464}
{"gene knocked down": "MRPL41 (GeneID 64975)", "BNIP3L mRNA, set 1": 0.112, "NDRG1 mRNA, set 1": 0.122}
{"gene knocked down": "SPEN (GeneID 23013)", "BNIP3L mRNA, set 1": 0.0524, "NDRG1 mRNA, set 1": 0.0999}
{"gene knocked down": "ZC3H7A (GeneID 29066)", "BNIP3L mRNA, set 1": 0.0873, "NDRG1 mRNA, set 1": 0.1}
{"gene knocked down": "WAPL (GeneID 23063)", "BNIP3L mRNA, set 1": 0.156, "NDRG1 mRNA, set 1": 0.32}
{"gene knocked down": "CKMT2 (GeneID 1160)", "BNIP3L mRNA, set 1": 0.126, "NDRG1 mRNA, set 1": 0.146}
